Reference: EP1997826A2, “Synthetic ligands for immunoglobulins and pharmaceutical compositions containing them” (Tecnogen S.p.A., priority 2007, dated 2008)
Like-named read-outs stand apart in the source and are kept apart here. Part of at least one peptide drawing is inferred or uncertain, most often the ends. Positions of bridges follow the written chain, without caps; N, C: chain ends. Residues, ends and D or L forms follow the SMILES beside them. Groups on a side chain read outwards from the residue. Chains are numbered I, II in the order given. *: point of attachment. X1 = COc1ccc(CSC[C@H](NC(C)=O)C(=O)*)cc1; Mob = COc1ccc(C*)cc1

Legend:
[1] = tested on: female mice of the Balb/c strain; conditions: mouse, in vivo
Protocol: Active cutaneous anaphylaxis on the mouse ear was induced according to the procedure described by Inagaki et al., Japan. J. Pharmacol. 1992, 59:201-208. Female mice of the Balb/c strain were immunized with the ovalbumin antigen in the presence of the adjuvant aluminium hydroxide gel (alum). The immunizations were carried out by intraperitoneal administration of 25 µg of ovalbumin and 1 mg of alum dissolved in 200 µl of PBS. A control group received intraperitoneal injections that only contained 1 mg of alum dissolved in 200 µl of PBS. […] After 30 minutes, the appearance, on the mouse ear, of stained areas in the dermis, with extent and intensity of staining proportional to the quantity of allergen injected, was observed. […] The sample was then stirred and filtered, and finally the amount of dye was determined with a spectrophotometer, taking readings at 620 nm. […] Extraction and quantification of the Evans Blue dye, discharged in the local inflammatory reaction, were carried out as described previously.

[2] = tested on: male rats of the CD1 species; conditions: rat, in vivo
Protocol: Passive cutaneous anaphylaxis in the rat was induced according to the procedure described by Ovary et al., 1952, Int. Arch. Allergy Appl. Immunol. 3:293-301. Rat ascitic fluid containing specific IgE against the ovalbumin antigen was injected in the shaved back of male rats of the CD1 species (Charles River, Italy). Ascitic fluid at different dilutions (from 20 to 20 000 times in PBS) was applied by intradermal injections at a volume of 50 µl, permitting the IgEs present in the ascitic fluid to bind to the FcεRs of the local mast cells, sensitizing them. On the next day, 1 mg of ovalbumin and the dye Evans Blue at a concentration of 2.0%, dissolved in 1 ml of PBS, were injected intravenously. After 30 minutes, the appearance, on the rats' backs, of stained areas in the dermis (wheals) with extent and intensity of staining proportional to the quantity of antigen-specific IgEs injected with the ascitic fluid, was observed. The experiment included a negative control, represented by the intradermal injection of 50 µl of PBS without ascitic fluid, and there was no corresponding appearance of staining. […]

RBL 2H3 cells = test: assay for degranulation of the RBL 2H3 cells (release of β-hexose-aminidase induced by anti-DNP IgE and DNP-BSA antigen); assay type: cell-based, rat
Source text: The RBL 2H3 cell line, rat basophils that express the receptor with high affinity for the immunoglobulins of class E (FcεRl), is widely used for investigating allergic reactions, because in this cell line the chemical mediators of inflammation are released as a result of allergen specific-IgE-FcεRI binding.
Release of the enzyme β-hexose-aminidase, which is present together with histamine in the granules of mast cells and basophils, can be used as an index of cellular degranulation (Tanaka et al., 1991, Chem. Pharm. Bull, 39, 2072-2076; McCloskey et al., 1988, Proc. Natl. Acad. Sci., USA, 85, 7260-7264).
The activity of the enzyme β-hexose-aminidase, released by the stimulated RBL 2H3 cells, was determined by the method described by Yamanishi et al., 1995, Jour. Biotech. Biochem., 59 (7), 1272-1275, which envisages measurement of the enzymatic activity by measuring the absorbance of the product p-nitrophenol generated by the synthetic substrate p-nitrophenyl-N-acetyl-β-D-glucosamide. 1x10^5 RBL 2H3 cells, trypsinized from plates at confluence, were resuspended in a volume of 80 µl of the culture medium (MEM + 10% inactivated fetal bovine serum) and distributed in each well of the 96-well plates (Costar). After 24 hours, 20 µl of medium containing anti-2,4-dinitrophenol monoclonal IgEs (DNP, Sigma, Cat. No. D-8406) was added to each well. […]

[3] = tested on: female mice of the Balb/c strain; conditions: mouse, in vivo; remark: listed apart in the source
Protocol: Cutaneous passive anaphylaxis on the mouse ear was induced according to the procedure described by Inagaki et al., Int. Arch. Allergy Appl. Immunol. 1985, 78:113-117. Rat ascitic fluid containing specific IgEs against the ovalbumin antigen was injected in the ear of female mice of the Balb/c strain. Ascitic fluid at different dilutions (5-10-20 times in PBS) was applied by intradermal injections at a volume of 10 µl, permitting the IgEs present in the ascitic fluid to bind to the FcεRs of the local mast cells, sensitizing them. After 48 hours, 0.25 mg of ovalbumin and Evans Blue dye at a concentration of 1.8%, dissolved in 70 µl of PBS, were injected intravenously. After 30 minutes, the appearance, on the mouse ear, of stained areas in the dermis, with extent and intensity of staining proportional to the quantity of antigen-specific IgEs injected with the ascitic fluid, was observed. The experiment included a negative control, represented by the intradermal injection of 10 µl of PBS without ascitic fluid, and there was no corresponding appearance of staining. The mice were sacrificed and the ears were removed for extraction and measurement of the dye discharged in the skin reaction. […] The sample was then stirred and filtered, and finally the amount of dye was determined with a spectrophotometer, taking readings at 620 nm. […]

`COc1ccc(CSC[C@H](NC(C)=O)C(=O)N[C@@H](CCCNC(=N)N)C(=O)N[C@H](C(=O)N[C@@H](Cc2ccc(O)cc2)C(=O)NCCCC[C@H](NC(=O)[C@H](Cc2ccc(O)cc2)NC(=O)[C@@H](NC(=O)[C@H](CCCNC(=N)N)NC(=O)[C@H](CSCc2ccc(OC)cc2)NC(C)=O)[C@@H](C)O)C(=O)NCCCC[C@H](NC(=O)[C@H](CCCCNC(=O)[C@H](Cc2ccc(O)cc2)NC(=O)[C@@H](NC(=O)[C@H](CCCNC(=N)N)NC(=O)[C@H](CSCc2ccc(OC)cc2)NC(C)=O)[C@@H](C)O)NC(=O)[C@H](Cc2ccc(O)cc2)NC(=O)[C@@H](NC(=O)[C@H](CCCNC(=N)N)NC(=O)[C@H](CSCc2ccc(OC)cc2)NC(C)=O)[C@@H](C)O)C(=O)N[C@@H](CCCCN)C(=O)O)[C@@H](C)O)cc1` [IF, (Ac-L-Cys(p-MeOBzl)-L-Arg-L-Thr-L-Tyr)4-L-Lys2-L-Lys-L-Lys-OH] (I: Ac-C(Mob)RTYK([Tyr-Thr-Arg-X1])KK-OH / II: Ac-C(Mob)RTYK([Tyr-Thr-Arg-X1]); amide I:6-II:C) was tested, and the “inhibition of allergic skin reaction, result in words compared with peptide IB” value [1] was “Results similar to the results obtained with peptide IB”, the “inhibition of allergic skin reaction, result in words compared with peptide IB” value [2] was “Results similar to the results obtained with peptide IB” and the “inhibition of degranulation, result in words compared with peptide IB” value (RBL 2H3 cells) was “Results similar to the results obtained with peptide IB”. For the same molecule, the “inhibition of allergic skin reaction, result in words compared with peptide IB” value [3] was “Results similar to the results obtained with peptide IB”.
